According to patent US20260116983A1:
These are yes or no findings as the source states them, for the method shown. Some binding calls cover weakened binding; strength is not graded here.

The chains behind the UniProt entries cited, without tags or fusion partners. Residues count along the entry.
UniProt Q03405, residues 23-305: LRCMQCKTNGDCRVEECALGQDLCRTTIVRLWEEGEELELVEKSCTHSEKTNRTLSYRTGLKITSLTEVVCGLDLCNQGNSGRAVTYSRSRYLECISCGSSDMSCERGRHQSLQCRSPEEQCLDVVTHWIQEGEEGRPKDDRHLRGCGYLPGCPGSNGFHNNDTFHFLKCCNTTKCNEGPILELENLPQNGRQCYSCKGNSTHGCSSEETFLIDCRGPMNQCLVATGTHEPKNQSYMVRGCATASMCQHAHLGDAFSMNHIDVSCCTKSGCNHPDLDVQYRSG

T1: cynomolgus uPAR (recombinant) (cynomolgus monkey) (UniProt Q9GK78)
T1 sequence (looked up): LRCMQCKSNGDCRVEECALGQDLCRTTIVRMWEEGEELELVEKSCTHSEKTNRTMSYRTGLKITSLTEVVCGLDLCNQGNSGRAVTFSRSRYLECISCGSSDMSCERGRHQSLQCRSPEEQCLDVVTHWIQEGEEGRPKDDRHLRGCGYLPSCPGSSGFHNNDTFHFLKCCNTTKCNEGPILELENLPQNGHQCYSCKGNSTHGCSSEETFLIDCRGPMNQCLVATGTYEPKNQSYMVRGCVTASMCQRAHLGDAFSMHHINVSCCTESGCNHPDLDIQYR


How the values were obtained:
[1] = biological target: T1, cynomolgus uPAR (recombinant) (cynomolgus monkey); assay: ELISA, plate-coated cyno uPAR
[2] = biological target: T1, cynomolgus uPAR (recombinant) (cynomolgus monkey); assay: ELISA (FIG. 3A)
[3] = biological target: recombinant soluble form of human uPAR (suPAR) (human) (UniProt Q03405); assay: BLI, suPAR captured by 2G10 on the sensor, candidate antibody in solution [Cont.) B]
[4] = biological target: T1, cynomolgus uPAR (recombinant) (cynomolgus monkey); assay: ELISA on plate-coated cynomolgus uPAR, HRP anti-human IgG, O.D. A450nm
[5] = biological target: T1, cynomolgus uPAR (recombinant) (cynomolgus monkey); assay: ELISA on plate-coated cynomolgus uPAR, HRP anti-human IgG, O.D. A450nm [Cont.]
[6] = biological target: recombinant soluble form of human uPAR (suPAR) (human) (UniProt Q03405); assay: BLI, candidate 1 loaded on the sensor, suPAR in solution [Cont.) C]
[7] = biological target: human uPAR displayed on the surface of MDA-MB-231 cells (human) (UniProt Q03405); assay: flow cytometry on MDA-MB-231 (high uPAR) and MCF-7 (low uPAR) cells
[8] = biological target: recombinant soluble form of human uPAR (suPAR) (human) (UniProt Q03405); assay: BLI, candidate 1 loaded on the sensor, suPAR, then candidate 2 in solution [Cont.) C]
[9] = biological target: recombinant soluble form of human uPAR (suPAR) (human) (UniProt Q03405); assay: BLI, suPAR captured by 2G10 on the sensor, 3159 in solution, before or after vitronectin

binding [1]	binding [2]	binding [3]	binding [4]	binding [7]	Binder	further results
binds	binds	binds	binds	–	Antibody 11857 (antibody, human IgG1, V domains shown) VH: EVQLRQSGPELVKPGASVKISCKASGYTFTDYYMNWVKQSHEKSLEWIGNINPNNGGTDYNQKFKGKATLTVDKSSSTAYMELRSLTSEDSAVYYCARSYGSRFPYWGLGTLVTVSA VL: DIQMTQTTSSLSASLGDRVTISCRASQDITNYLSWYQQKPDGTVKLLIFYTAVLQSGFPLRFSGSGSGADYSLTISNLEQEDFATYFCQQGHTLPWTFGGGTKLEIK	–
binds	binds	–	–	–	Antibody 3595 (antibody, human IgG1, V domains shown) VH: EVQLRQSGPELVKPGASVKISCKASGYTFTDYYMNWVKQSHEKSLEWIGNINPNNGGTDYNQKFKGKATLTVDKSSSTAYMELRSLTSEDSAVYYCARSYGSRFPYWGLGTLVTVSA VL: DIQMTQTTSSLSASLGDRVTISCRASQDITNYLSWYQQKPDGTVKLLIFYTSFLQSGVPLRFSGSGSGADYSLTISNLEQEDFATYFCQQGHTLPWTFGGGTKLEIK	binding [5]: binds
binds	binds	binds	binds	–	Antibody 8163 (antibody, human IgG1, V domains shown) VH: EVQLVESGGGLVQPGESLTLSCDSNEFDFPSHDMSWVRKTPEKRLELVAAIDSDGGLTYYSNSRERRFIISRDNTKNTLYLQMRSLRSEDTALYYCARRRASYWYFDVWGTGTTVTVSS VL: DILLTQSPAILPVSPGERVSFSCRASQNIGTSIHWYQQRTNGSPRLLIKYASESISGIPSRFSGSGSGTDFTLSINGVESEDIGDYYCQQSNSWPTFGGGTKLEIK	binding [6]: binds

The next lines start with the binder.

Binder	binding [1]	binding [2]	binding [3]	binding [4]	binding [7]	further results
11857 HC1 + LC2 (humanized) (antibody, V domains shown) VH: EVQLVQSGAEVKKPGATVKISCKVSGYTFTDYYMNWVQQAPGKSLEWMGNINPNNGGTDYNQKFQGRVTITADKSTSTAYMELSSLRSEDTAVYYCARSYGSRFPYWGLGTLVTVSS VL: DIQMTQSPSSLSASVGDRVTITCRASQDITNYLSWYQQKPGGTVKLLIFYTAVLQSGFPSRFSGSGSGADFTLTISSLQPEDVATYYCQQGHTLPWTFGGGTKVEIK	–	–	–	–	binds	–
11857 HC1 + LC3 (humanized) (antibody, V domains shown) VH: EVQLVQSGAEVKKPGATVKISCKVSGYTFTDYYMNWVQQAPGKSLEWMGNINPNNGGTDYNQKFQGRVTITADKSTSTAYMELSSLRSEDTAVYYCARSYGSRFPYWGLGTLVTVSS VL: DIQMTQSPSSLSASVGDRVTITCRASQDITNYLSWFQQKPGGTVKLLIYYTAVLQSGFPSRFSGSGSGADFTLTISSLQPEDFATYYCQQGHTLPWTFGGGTKVEIK	–	–	–	–	binds	–
11857 HC2 + LC2 (humanized) (antibody, V domains shown) VH: EVQLVQSGAEVKKPGASVKVSCKASGYTFTDYYMNWVRQAPGKSLEWMGNINPNNGGTDYSQKFQGRVTITVDTSASTAYMELSSLRSEDTAVYYCARSYGSRFPYWGLGTLVTVSS VL: DIQMTQSPSSLSASVGDRVTITCRASQDITNYLSWYQQKPGGTVKLLIFYTAVLQSGFPSRFSGSGSGADFTLTISSLQPEDVATYYCQQGHTLPWTFGGGTKVEIK	–	–	–	–	binds	–
Antibody 3159 (antibody, human IgG1, V domains shown) VH: QVTLKESGPGILQSSLTLSLTCSLSGFSLSTSGMGVSWIRQPSGKGLEWLAHIYWDDDKRYNPSLKTRLTISKDASRDQVFLKIISVDTADTGTYYCGRRVRNYFSGTSYWYFDVWGTGTTVTVSS VL: DVLMTQTPLSLSVSLGDQASISCRSSQNILHRTGNTYLEWYLQKPGQSPKLLIYKVSNRFSGVPDRFSGSGSGTDFTLKISRLEAEDLGVYYCFQGSYVPFTFGSGTKLEMK	binds	binds	binds	binds	–	binding [8]: binds; binding [9]: binds
